According to US11207321B2, “Methods and medical uses” (Institute of Cancer Research: Royal Cancer Hospital (The), priority 2017, dated 2021):
At least one compound was matched to its structure with a doubt left.

What was measured:
[1] = test system: wt-MCF7^991R and MCF7 LTED^991R; assay: Stability of palbociclib-resistant phenotype after drug washout; format: cell-based; conditions: cultured short and long-term in absence of drug
[2] = test system: wt-T47D^991R and T47D LTED^991R; assay: as above; format: cell-based; conditions: cultured short and long-term in absence of drug

Compound: CC(=O)c1c(C)c2cnc(Nc3ccc(N4CCNCC4)cn3)nc2n(C2CCCC2)c1=O [palbociclib]
- sensitivity to antiproliferative effect after washout [1]: re-sensitised
- sensitivity to antiproliferative effect after washout [2]: remained resistant
